Results: patent publication US10399978B2, “Imidazopyridine thioglycolic acid derivatives as potent inhibitors of human urate transporter 1” (SHANDONG UNIVERSITY, priority 2016, dated 2019)
Some of these results come from one statement about several compounds together.

Test system: mice with acute hyperuricemia
Test: In vivo activity of reducing serum uric acid (acute hyperuricemia induced with xanthine and potassium oxonate)
Parameters: species or system Kunming mice
Conditions: batch 2, conclusion from Table 2
Method: All newly synthesized target compounds were primarily evaluated for their activities of reducing blood uric acid in vivo (mice). Benzbromarone and lesinurad were selected as positive control drugs.
Example 46. In Vivo Activity of Reducing Serum Uric Acid
• (1) Experimental animal: Kunming mice, provided by Experimental Animal Center of Shandong University • (2) Preparation of compounds: Compounds were dissolved in ethanol and CMC-Na. • (3) Modeling drugs: Xanthine and potassium oxonate • (4) Reference drugs: Benzbromarone and Lesinurad • (5) Test method: The model group consisted of mice with acute hyperuricemia induced with 0.2 mL xanthine intragastric injection and 0.2 mL potassium oxonate subcutaneous injection, and not treated with test compound.

Row | Compound | activity compared with drug RDEA594
1 | CCOC(=O)CCCSc1nc2ncccc2n1-c1ccc(C2CC2)c2ccccc12 [Compound T2] | much better than that of drug RDEA594
2 | CC(Sc1nc2ncccc2n1-c1ccc(C2CC2)c2ccccc12)C(=O)O (centres unmarked) [Compound T7] | much better than that of drug RDEA594
3 | CCOC(=O)CSc1nc2ncccc2n1-c1ccc(C2CC2)c2ccccc12 [Compound T1] | much better than that of drug RDEA594
4 | O=C(O)CCCSc1nc2ncccc2n1-c1ccc(C2CC2)c2ccccc12 [Compound T6] | much better than that of drug RDEA594
5 | CC(C)(Sc1nc2ncccc2n1-c1ccc(C2CC2)c2ccccc12)C(=O)O [Compound T8] | much better than that of drug RDEA594
6 | O=C(O)CSc1nc2ncccc2n1-c1ccc(C2CC2)c2ccccc12 [Compound T5] | much better than that of drug RDEA594
7 | CCOC(=O)C(C)Sc1nc2ncccc2n1-c1ccc(C2CC2)c2ccccc12 (centres unmarked) [Compound T3] | much better than that of drug RDEA594
8 | CCOC(=O)C(C)(C)Sc1nc2ncccc2n1-c1ccc(C2CC2)c2ccccc12 [Compound T4] | much better than that of drug RDEA594
